# Assay results: the supplement of paper PMC6411743
# By UniProt entry, the sequences of proteins in these tests, tags left out. Where a name states a change or a piece, a line headed by the entry shows the natural chain unless it says otherwise.
# UniProt P26196: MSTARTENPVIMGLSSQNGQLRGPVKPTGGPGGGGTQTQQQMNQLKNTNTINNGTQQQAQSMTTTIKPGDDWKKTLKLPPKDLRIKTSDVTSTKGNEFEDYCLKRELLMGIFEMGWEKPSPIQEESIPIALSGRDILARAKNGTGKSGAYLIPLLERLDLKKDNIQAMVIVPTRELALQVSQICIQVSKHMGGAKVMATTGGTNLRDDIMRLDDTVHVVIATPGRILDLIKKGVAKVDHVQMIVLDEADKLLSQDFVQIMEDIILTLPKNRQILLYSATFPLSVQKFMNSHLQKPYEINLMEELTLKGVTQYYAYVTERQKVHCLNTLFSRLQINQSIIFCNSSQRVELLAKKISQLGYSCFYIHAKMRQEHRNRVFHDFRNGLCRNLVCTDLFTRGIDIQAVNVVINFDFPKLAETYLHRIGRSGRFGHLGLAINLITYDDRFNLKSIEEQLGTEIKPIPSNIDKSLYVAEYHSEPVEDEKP
# UniProt P21291: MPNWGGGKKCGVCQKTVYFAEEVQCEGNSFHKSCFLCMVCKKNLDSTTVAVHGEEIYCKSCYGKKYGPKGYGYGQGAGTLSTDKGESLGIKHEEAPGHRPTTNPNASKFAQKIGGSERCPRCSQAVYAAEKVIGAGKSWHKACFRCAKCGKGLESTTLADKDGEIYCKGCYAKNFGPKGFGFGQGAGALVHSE
# UniProt P24723, whole entry, looked up: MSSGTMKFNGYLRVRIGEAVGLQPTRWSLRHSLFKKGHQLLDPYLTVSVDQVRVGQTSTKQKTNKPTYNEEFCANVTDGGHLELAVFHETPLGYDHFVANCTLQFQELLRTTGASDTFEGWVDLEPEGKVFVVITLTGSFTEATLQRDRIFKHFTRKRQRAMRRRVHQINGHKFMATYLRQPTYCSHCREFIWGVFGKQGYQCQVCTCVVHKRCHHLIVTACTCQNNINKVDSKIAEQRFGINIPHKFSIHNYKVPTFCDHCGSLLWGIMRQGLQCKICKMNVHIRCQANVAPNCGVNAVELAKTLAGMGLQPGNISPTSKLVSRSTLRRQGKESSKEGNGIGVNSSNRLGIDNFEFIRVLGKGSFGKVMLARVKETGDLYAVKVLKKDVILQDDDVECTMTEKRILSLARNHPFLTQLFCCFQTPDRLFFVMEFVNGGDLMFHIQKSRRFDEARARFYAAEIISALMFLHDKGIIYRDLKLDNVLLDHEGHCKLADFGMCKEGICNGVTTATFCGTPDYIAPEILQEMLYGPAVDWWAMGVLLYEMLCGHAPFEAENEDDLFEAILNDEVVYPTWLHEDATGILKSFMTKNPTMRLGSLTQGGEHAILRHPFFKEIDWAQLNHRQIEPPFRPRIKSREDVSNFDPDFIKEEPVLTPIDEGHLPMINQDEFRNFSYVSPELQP
# UniProt P26583: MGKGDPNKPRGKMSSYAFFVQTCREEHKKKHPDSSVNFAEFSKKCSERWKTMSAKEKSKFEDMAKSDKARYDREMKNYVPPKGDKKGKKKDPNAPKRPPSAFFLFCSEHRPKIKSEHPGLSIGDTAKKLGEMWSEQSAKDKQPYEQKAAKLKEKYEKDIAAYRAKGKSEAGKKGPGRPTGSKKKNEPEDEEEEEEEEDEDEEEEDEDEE
# UniProt P09382, whole entry: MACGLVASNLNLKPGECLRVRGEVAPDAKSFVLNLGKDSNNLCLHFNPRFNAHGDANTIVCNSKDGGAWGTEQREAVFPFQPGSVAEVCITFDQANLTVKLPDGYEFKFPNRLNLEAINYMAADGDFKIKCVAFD
# UniProt P18583: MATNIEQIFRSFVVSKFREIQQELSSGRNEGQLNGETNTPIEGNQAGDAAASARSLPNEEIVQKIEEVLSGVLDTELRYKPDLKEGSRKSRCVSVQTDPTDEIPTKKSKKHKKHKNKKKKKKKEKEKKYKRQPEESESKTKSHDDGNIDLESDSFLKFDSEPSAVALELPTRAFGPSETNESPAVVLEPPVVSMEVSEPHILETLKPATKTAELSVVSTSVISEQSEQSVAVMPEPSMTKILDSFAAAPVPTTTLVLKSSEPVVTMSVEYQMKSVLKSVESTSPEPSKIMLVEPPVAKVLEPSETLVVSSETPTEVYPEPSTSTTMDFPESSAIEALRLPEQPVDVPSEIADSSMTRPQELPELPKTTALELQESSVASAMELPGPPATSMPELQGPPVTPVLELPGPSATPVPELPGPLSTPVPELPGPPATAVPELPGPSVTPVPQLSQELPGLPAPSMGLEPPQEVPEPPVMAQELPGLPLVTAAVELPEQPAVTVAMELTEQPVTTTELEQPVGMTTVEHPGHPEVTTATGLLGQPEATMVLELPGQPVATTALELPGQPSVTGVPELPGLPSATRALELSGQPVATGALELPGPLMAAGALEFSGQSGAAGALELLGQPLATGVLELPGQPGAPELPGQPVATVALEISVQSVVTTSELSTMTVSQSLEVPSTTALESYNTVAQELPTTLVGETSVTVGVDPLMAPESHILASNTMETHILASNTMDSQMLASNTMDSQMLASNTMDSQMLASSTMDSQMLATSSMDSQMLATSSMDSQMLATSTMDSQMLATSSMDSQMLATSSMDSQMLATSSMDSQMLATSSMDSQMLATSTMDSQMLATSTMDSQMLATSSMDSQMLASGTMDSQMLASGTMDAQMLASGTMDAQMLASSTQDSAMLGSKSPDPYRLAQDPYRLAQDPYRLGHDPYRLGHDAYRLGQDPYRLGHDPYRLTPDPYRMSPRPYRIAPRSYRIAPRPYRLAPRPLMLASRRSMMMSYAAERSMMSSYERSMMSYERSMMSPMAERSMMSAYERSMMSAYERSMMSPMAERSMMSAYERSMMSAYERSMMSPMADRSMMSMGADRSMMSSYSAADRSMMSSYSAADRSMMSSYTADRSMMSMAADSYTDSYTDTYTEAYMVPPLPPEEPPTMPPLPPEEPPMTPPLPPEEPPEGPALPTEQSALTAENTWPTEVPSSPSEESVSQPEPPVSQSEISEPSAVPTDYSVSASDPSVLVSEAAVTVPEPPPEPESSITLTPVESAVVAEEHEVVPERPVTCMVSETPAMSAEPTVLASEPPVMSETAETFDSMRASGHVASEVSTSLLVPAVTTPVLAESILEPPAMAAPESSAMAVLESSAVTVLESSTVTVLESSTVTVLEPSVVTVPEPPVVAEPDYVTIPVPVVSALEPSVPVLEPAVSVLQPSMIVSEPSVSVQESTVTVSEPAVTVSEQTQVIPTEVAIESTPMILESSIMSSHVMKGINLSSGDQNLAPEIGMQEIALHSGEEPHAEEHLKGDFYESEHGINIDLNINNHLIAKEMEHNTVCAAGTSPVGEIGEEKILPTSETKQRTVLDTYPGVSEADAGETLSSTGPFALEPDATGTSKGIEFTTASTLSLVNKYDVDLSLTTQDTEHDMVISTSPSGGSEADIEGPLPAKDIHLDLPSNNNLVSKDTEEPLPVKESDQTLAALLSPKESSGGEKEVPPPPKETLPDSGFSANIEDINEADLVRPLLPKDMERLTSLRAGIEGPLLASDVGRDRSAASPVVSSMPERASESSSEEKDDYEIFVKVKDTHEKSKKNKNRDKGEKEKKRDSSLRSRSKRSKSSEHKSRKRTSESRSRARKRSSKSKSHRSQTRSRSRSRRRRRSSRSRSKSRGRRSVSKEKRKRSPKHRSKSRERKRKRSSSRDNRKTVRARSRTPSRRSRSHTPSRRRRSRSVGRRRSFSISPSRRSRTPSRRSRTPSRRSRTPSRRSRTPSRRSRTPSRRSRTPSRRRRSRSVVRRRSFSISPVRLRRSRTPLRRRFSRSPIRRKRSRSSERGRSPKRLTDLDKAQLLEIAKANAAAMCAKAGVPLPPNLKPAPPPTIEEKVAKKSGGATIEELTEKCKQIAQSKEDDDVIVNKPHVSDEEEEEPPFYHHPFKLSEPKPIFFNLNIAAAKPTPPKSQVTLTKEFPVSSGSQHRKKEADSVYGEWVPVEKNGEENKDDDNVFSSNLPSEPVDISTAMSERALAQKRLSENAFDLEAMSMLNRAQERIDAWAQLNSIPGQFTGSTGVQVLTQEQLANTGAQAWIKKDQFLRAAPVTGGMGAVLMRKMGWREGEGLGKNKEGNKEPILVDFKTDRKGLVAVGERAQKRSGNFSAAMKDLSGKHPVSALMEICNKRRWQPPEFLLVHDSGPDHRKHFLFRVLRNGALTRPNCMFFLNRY
# UniProt P09564: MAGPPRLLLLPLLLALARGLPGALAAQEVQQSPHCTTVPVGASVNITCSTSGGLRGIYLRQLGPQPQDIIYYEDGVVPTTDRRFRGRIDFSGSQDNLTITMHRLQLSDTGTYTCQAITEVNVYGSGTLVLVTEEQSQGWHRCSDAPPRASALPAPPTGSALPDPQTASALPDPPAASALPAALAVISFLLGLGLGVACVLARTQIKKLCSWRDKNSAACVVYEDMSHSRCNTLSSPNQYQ
# UniProt P10412, whole entry: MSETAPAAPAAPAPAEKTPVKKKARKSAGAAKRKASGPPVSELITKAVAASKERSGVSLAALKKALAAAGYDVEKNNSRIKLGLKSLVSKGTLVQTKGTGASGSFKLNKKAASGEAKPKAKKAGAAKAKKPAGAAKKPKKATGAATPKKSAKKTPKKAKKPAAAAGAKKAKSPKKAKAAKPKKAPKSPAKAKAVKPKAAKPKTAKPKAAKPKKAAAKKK
# UniProt P19634, whole entry: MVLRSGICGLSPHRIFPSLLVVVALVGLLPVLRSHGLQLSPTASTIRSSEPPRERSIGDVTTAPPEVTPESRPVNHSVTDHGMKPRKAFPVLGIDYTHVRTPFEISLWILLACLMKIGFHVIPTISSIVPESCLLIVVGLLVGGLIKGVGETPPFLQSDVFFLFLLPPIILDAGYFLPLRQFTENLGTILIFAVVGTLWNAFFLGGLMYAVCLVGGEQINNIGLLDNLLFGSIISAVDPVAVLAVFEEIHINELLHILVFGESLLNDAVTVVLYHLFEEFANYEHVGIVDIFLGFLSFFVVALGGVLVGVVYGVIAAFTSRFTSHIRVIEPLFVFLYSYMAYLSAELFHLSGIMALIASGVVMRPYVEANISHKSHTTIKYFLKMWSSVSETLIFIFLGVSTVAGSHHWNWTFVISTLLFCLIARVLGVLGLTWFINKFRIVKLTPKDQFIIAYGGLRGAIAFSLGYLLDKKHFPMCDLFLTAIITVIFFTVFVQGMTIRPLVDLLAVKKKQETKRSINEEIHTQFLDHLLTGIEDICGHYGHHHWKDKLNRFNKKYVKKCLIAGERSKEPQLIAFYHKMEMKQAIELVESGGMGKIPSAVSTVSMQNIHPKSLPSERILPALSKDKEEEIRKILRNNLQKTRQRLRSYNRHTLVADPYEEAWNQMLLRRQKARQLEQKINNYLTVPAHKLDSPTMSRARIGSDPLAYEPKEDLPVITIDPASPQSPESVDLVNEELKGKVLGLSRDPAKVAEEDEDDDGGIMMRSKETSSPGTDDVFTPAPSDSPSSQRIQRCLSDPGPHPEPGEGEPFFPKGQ
# UniProt P26038, whole entry: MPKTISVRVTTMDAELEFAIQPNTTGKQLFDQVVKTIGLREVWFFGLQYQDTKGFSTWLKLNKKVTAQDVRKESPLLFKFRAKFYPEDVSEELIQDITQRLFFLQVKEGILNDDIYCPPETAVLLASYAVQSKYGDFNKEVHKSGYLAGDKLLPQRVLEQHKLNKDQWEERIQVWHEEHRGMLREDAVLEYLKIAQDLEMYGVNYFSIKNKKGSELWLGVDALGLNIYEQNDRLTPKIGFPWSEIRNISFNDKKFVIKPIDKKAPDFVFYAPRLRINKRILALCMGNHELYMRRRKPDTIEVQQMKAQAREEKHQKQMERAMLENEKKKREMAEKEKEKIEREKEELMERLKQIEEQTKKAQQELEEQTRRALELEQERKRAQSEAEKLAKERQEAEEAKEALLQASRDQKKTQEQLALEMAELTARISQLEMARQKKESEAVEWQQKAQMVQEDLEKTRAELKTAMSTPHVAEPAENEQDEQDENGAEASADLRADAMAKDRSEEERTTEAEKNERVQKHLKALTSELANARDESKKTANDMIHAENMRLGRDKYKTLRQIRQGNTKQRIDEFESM
# UniProt P09669, whole entry: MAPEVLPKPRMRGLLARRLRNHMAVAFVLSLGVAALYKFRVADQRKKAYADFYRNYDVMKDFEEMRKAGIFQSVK
# UniProt P10599: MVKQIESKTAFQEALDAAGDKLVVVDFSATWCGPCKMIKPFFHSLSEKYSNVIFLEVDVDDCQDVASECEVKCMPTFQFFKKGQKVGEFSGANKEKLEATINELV
# UniProt P09104, whole entry: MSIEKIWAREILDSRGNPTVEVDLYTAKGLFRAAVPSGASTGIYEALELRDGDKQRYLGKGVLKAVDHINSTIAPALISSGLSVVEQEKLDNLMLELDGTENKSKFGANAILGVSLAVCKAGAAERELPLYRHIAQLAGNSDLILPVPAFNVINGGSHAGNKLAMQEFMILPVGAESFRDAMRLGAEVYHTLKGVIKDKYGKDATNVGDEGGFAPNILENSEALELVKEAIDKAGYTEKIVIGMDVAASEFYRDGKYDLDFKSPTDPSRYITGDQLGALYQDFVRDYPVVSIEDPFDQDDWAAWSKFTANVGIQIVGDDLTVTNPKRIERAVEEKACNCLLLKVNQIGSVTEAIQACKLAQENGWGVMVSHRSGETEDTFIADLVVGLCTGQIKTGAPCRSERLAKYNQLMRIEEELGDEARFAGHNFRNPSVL
# ± gives the standard deviation of the averaged measurements. Some of the results follow.
# Compound: Nc1nc2c(ncn2[C@@H]2O[C@H](COP(=O)(O)OP(=O)(O)OP(=O)(O)O)[C@@H](O)[C@H]2O)c(=O)[nH]1 [guanosine triphosphate]
# Assay: NP40-soluble protein abundance relative to vehicle (solubility fold change) (ratio); higher = more soluble protein in presence of GTP
# Method in brief: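 Across three independent experiments, values are fold changes against the detergent-processed vehicle for each replicate, based on vsn-normalised intensities. The samples were Jurkat crude lysate treated with eight concentrations (0.1 to 10 mM) for 10 min at room temperature and then 3 min at 37 °C. Lysate was solubilised with 0.8% NP40 and benzonase, ultracentrifuged, and the supernatant analysed by TMT-labelled LC-MS/MS.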
Target,NP40-soluble protein abundance (concentration: 0.1mM),NP40-soluble protein abundance (concentration: 0.5mM),NP40-soluble protein abundance (concentration: 1mM),NP40-soluble protein abundance (concentration: 2mM),NP40-soluble protein abundance (concentration: 4mM),NP40-soluble protein abundance (concentration: 6mM),NP40-soluble protein abundance (concentration: 8mM),NP40-soluble protein abundance (concentration: 10mM)
UniProt P18433 and related entries,0.993 ± 0.049,0.995 ± 0.11,0.966 ± 0.076,0.939 ± 0.075,0.938 ± 0.11,0.941 ± 0.11,0.957 ± 0.062,0.952 ± 0.13
UniProt P23634 and related entries,0.982 ± 0.049,1.01 ± 0.041,0.912 ± 0.025,0.941 ± 0.026,0.912 ± 0.064,0.9293 ± 0.0091,0.875 ± 0.066,0.897 ± 0.061
DDX6 (UniProt P26196),0.988 ± 0.049,0.999 ± 0.03,0.952 ± 0.033,0.9702 ± 0.004,0.984 ± 0.035,1 ± 0.025,0.95 ± 0.064,0.952 ± 0.05
CSRP1 (UniProt P21291),0.905 ± 0.097,0.9 ± 0.092,0.88 ± 0.08,0.858 ± 0.067,0.87 ± 0.06,0.826 ± 0.054,0.885 ± 0.1,0.852 ± 0.1
UniProt P07437,0.927 ± 0.16,0.961 ± 0.13,0.95 ± 0.15,0.937 ± 0.14,1.03 ± 0.23,0.914 ± 0.17,0.954 ± 0.15,0.934 ± 0.17
PRKCH (UniProt P24723),1.05 ± 0.011,1.02 ± 0.037,0.932 ± 0.026,0.962 ± 0.032,0.947 ± 0.037,0.914 ± 0.024,0.906 ± 0.066,0.878 ± 0.078
AHCY (UniProt P23526),1.03 ± 0.025,1.05 ± 0.076,0.944 ± 0.023,0.963 ± 0.07,0.965 ± 0.054,0.952 ± 0.072,0.912 ± 0.018,0.882 ± 0.039
TUBG1 (UniProt P23258),1.08 ± 0.056,1.12 ± 0.1,1.17 ± 0.17,1.28 ± 0.21,1.33 ± 0.24,1.32 ± 0.25,1.28 ± 0.19,1.27 ± 0.21
UQCRC2 (UniProt P22695),0.998 ± 0.029,0.963 ± 0.043,0.953 ± 0.035,0.943 ± 0.067,0.958 ± 0.06,0.928 ± 0.063,0.899 ± 0.022,0.871 ± 0.018
DARS (UniProt P14868),1.06 ± 0.045,1.12 ± 0.14,1.01 ± 0.1,1.12 ± 0.21,1.09 ± 0.17,1.12 ± 0.22,1.06 ± 0.14,1.06 ± 0.17
RALA (UniProt P11233),0.9 ± 0.049,0.964 ± 0.021,0.932 ± 0.044,0.895 ± 0.04,0.858 ± 0.08,0.915 ± 0.052,0.883 ± 0.031,0.88 ± 0.05
UniProt P15813,1.03 ± 0.093,1.01 ± 0.12,1.03 ± 0.058,1.01 ± 0.048,0.993 ± 0.1,1.03 ± 0.073,0.996 ± 0.14,1.1 ± 0.15
HMGB2 (UniProt P26583),0.831 ± 0.065,0.872 ± 0.043,1.08 ± 0.096,1.1 ± 0.047,1.07 ± 0.066,1.13 ± 0.031,1.08 ± 0.043,1.38 ± 0.25
LGALS1 (UniProt P09382),0.889 ± 0.036,0.886 ± 0.037,0.885 ± 0.042,0.789 ± 0.055,0.813 ± 0.11,0.822 ± 0.067,0.821 ± 0.03,0.809 ± 0.055
UniProt P18583 and related entries,1.05 ± 0.022,1.09 ± 0.038,1.16 ± 0.057,1.21 ± 0.035,1.24 ± 0.098,1.28 ± 0.073,1.31 ± 0.11,1.4 ± 0.12
UniProt P09564,1.03 ± 0.2,0.908 ± 0.048,1.09 ± 0.19,0.942 ± 0.15,1.02 ± 0.13,0.977 ± 0.15,1 ± 0.17,0.932 ± 0.14
UniProt P17612,1.07 ± 0.076,1.05 ± 0.065,1.04 ± 0.078,0.989 ± 0.065,1.05 ± 0.12,0.996 ± 0.086,1.03 ± 0.11,0.942 ± 0.024
UniProt P23469 and related entries,1 ± 0.14,1 ± 0.14,0.868 ± 0.2,0.86 ± 0.094,0.884 ± 0.096,0.991 ± 0.23,0.843 ± 0.16,0.88 ± 0.15
UniProt P07355 and related entries,0.921 ± 0.022,0.928 ± 0.037,0.887 ± 0.038,0.887 ± 0.04,0.843 ± 0.049,0.872 ± 0.048,0.822 ± 0.076,0.85 ± 0.055
HIST1H1E (UniProt P10412),1.02 ± 0.12,1.05 ± 0.1,1.13 ± 0.15,1.24 ± 0.11,1.26 ± 0.055,1.38 ± 0.064,1.28 ± 0.18,2.05 ± 0.41
SLC9A1 (UniProt P19634),1.01 ± 0.075,1.02 ± 0.039,0.98 ± 0.059,1.03 ± 0.037,0.995 ± 0.024,1 ± 0.018,1.06 ± 0.071,1.03 ± 0.045
IMPDH2 (UniProt P12268),1 ± 0.031,1.14 ± 0.13,1.15 ± 0.2,1.22 ± 0.27,1.24 ± 0.28,1.2 ± 0.3,1.14 ± 0.26,1.1 ± 0.25
UniProt P20073 and related entries,0.945 ± 0.019,0.897 ± 0.047,0.915 ± 0.058,0.895 ± 0.052,0.897 ± 0.046,0.884 ± 0.059,0.851 ± 0.09,0.876 ± 0.074
VDAC1 (UniProt P21796),0.936 ± 0.022,0.961 ± 0.028,0.903 ± 0.027,0.873 ± 0.021,0.869 ± 0.032,0.875 ± 0.025,0.856 ± 0.042,0.82 ± 0.047
PSMB1 (UniProt P20618),1.03 ± 0.064,1.07 ± 0.12,1.09 ± 0.13,1.11 ± 0.17,1.11 ± 0.15,1.15 ± 0.2,1.13 ± 0.21,1.1 ± 0.22
UniProt P26038 and related entries,0.942 ± 0.058,0.964 ± 0.055,0.921 ± 0.07,0.883 ± 0.084,0.851 ± 0.085,0.865 ± 0.08,0.883 ± 0.071,0.866 ± 0.086
MIF (UniProt P14174),0.966 ± 0.12,0.926 ± 0.12,0.945 ± 0.12,0.952 ± 0.1,0.962 ± 0.18,0.906 ± 0.096,0.956 ± 0.14,0.973 ± 0.11
COX6C (UniProt P09669),0.927 ± 0.1,0.834 ± 0.12,0.988 ± 0.2,0.897 ± 0.15,0.88 ± 0.16,0.852 ± 0.16,0.745 ± 0.1,0.898 ± 0.15
TXN (UniProt P10599),0.954 ± 0.088,0.941 ± 0.064,0.936 ± 0.1,0.863 ± 0.1,0.84 ± 0.097,0.877 ± 0.11,0.865 ± 0.075,0.862 ± 0.083
ENO2 (UniProt P09104),0.941 ± 0.092,0.938 ± 0.067,0.948 ± 0.038,0.9 ± 0.048,0.908 ± 0.069,0.895 ± 0.037,0.901 ± 0.039,0.88 ± 0.081

# As entered above:
# NP40-soluble protein abundance (concentration: 0.1mM) with DARS (UniProt P14868) is entered as 1.06 ± 0.045
# NP40-soluble protein abundance (concentration: 0.1mM) with TUBG1 (UniProt P23258) is entered as 1.08 ± 0.056
